Test results taken from patent US20250213546A1, “TREATING CANCER WITH SMALL MOLECULES THAT INHIBIT ACSS-2” (DREXEL UNIVERSITY, priority 2022, published 2025).

Assay: Human liver microsome stability
Type: in vitro ADME
Procedure: Metabolic Stability and Plasma Stability. Test compound Working solution: 5 μL of compound stock solution (10 mM in dimethyl sulfoxide (DMSO)) were diluted with 495 μL of DMSO (Working solution concentration: 100 μM, 100% DMSO). Propantheline bromide Working solution: 5 μL of Propantheline bromide stock solution (10 mM in H2O) were diluted with 495 μL of H2O (Working solution concentration: 100 μM, 100% H2O)

CCCNCC(O)COc1ccccc1C(=O)CCc1ccccc1 (centres unmarked) [Propafenone, reference compound]
Human Liver Microsome Stability Remaining(T = 60 min) (60 min, given as fraction): 0.00396
Human Liver Microsome Stability CLint(liver) (human liver microsomes, scaled to liver): 157.5135 mL/min/kg
